{"source": "PubChem BioAssay AID1259254 | NCATS, 2017", "purpose": "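Finding genes that stop cells copying their DNA twice in one cycle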 (primary screen)", "cells": "human HCT116 colorectal cancer cells", "reagent": "single siRNA against human genes", "duration": "3 days", "measured": "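Nuclei stained with Hoechst and imaged; cell-cycle phase assigned by DNA content; G2 share scaled per plate, non-targeting siRNA 0%, GMNN siRNA 100%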", "direction": "G2 robust z-score: higher = more G2 cells, more excess DNA replication", "rule for the call": "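An siRNA counts as active if its G2 robust z-score lies at least 5 MADs above the screen median; here such calls match roughly 38% of GMNN control or more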", "note": "The deposit covers about 59,000 reagents; this is an unselected part. Of all reagents, about 1,550 (2.6%) were called active. 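G2 share is only a proxy for re-replication; each gene was hit by three separate siRNAs, and active genes were retested.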 Reagents against one gene are numbered here. Further read-outs or replicates are left out here. The record does not give: the amount of reagent."}
{"target": "RNF144B (ring finger protein 144B)", "reagent": 1, "G2 robust z-score": 0.0308, "Call": "inactive"}
{"target": "RNF144B (ring finger protein 144B)", "reagent": 2, "G2 robust z-score": -0.318, "Call": "inactive"}
{"target": "RNF144B (ring finger protein 144B)", "reagent": 3, "G2 robust z-score": -1.01, "Call": "inactive"}
{"target": "POLR2G (RNA polymerase II subunit G)", "reagent": 1, "G2 robust z-score": 1.07, "Call": "inactive"}
{"target": "POLR2G (RNA polymerase II subunit G)", "reagent": 2, "G2 robust z-score": 5.34, "Call": "active"}
{"target": "POLR2G (RNA polymerase II subunit G)", "reagent": 3, "G2 robust z-score": 5.61, "Call": "active"}
{"target": "NDUFS6 (NADH:ubiquinone oxidoreductase subunit S6)", "reagent": 1, "G2 robust z-score": 0.615, "Call": "inactive"}
{"target": "NDUFS6 (NADH:ubiquinone oxidoreductase subunit S6)", "reagent": 2, "G2 robust z-score": -0.676, "Call": "inactive"}
{"target": "NDUFS6 (NADH:ubiquinone oxidoreductase subunit S6)", "reagent": 3, "G2 robust z-score": 0.351, "Call": "inactive"}
{"target": "TAPBPL (TAP binding protein like)", "reagent": 1, "G2 robust z-score": 1.73, "Call": "inactive"}
{"target": "TAPBPL (TAP binding protein like)", "reagent": 2, "G2 robust z-score": -0.762, "Call": "inactive"}
{"target": "TAPBPL (TAP binding protein like)", "reagent": 3, "G2 robust z-score": -0.763, "Call": "inactive"}

Next part; the last 4 above are carried over.
{"target": "NDUFS6 (NADH:ubiquinone oxidoreductase subunit S6)", "reagent": 3, "G2 robust z-score": 0.351, "Call": "inactive"}
{"target": "TAPBPL (TAP binding protein like)", "reagent": 1, "G2 robust z-score": 1.73, "Call": "inactive"}
{"target": "TAPBPL (TAP binding protein like)", "reagent": 2, "G2 robust z-score": -0.762, "Call": "inactive"}
{"target": "TAPBPL (TAP binding protein like)", "reagent": 3, "G2 robust z-score": -0.763, "Call": "inactive"}
{"target": "PARP9 (poly(ADP-ribose) polymerase family member 9)", "reagent": 1, "G2 robust z-score": 1.67, "Call": "inactive"}
{"target": "PARP9 (poly(ADP-ribose) polymerase family member 9)", "reagent": 2, "G2 robust z-score": -0.403, "Call": "inactive"}
{"target": "PARP9 (poly(ADP-ribose) polymerase family member 9)", "reagent": 3, "G2 robust z-score": -0.319, "Call": "inactive"}
{"target": "CCNF (cyclin F)", "reagent": 1, "G2 robust z-score": 0.581, "Call": "inactive"}
{"target": "CCNF (cyclin F)", "reagent": 2, "G2 robust z-score": 1.97, "Call": "inactive"}
{"target": "CCNF (cyclin F)", "reagent": 3, "G2 robust z-score": -0.676, "Call": "inactive"}
{"target": "STAB2 (stabilin 2)", "reagent": 1, "G2 robust z-score": -1.18, "Call": "inactive"}
{"target": "STAB2 (stabilin 2)", "reagent": 2, "G2 robust z-score": 2.33, "Call": "inactive"}
{"target": "STAB2 (stabilin 2)", "reagent": 3, "G2 robust z-score": -0.816, "Call": "inactive"}
{"target": "CYBB (cytochrome b-245 beta chain)", "reagent": 1, "G2 robust z-score": -0.397, "Call": "inactive"}
{"target": "CYBB (cytochrome b-245 beta chain)", "reagent": 2, "G2 robust z-score": 2.05, "Call": "inactive"}
{"target": "CYBB (cytochrome b-245 beta chain)", "reagent": 3, "G2 robust z-score": 0.00675, "Call": "inactive"}
{"target": "ATXN2 (ataxin 2)", "reagent": 1, "G2 robust z-score": 0.188, "Call": "inactive"}
{"target": "ATXN2 (ataxin 2)", "reagent": 2, "G2 robust z-score": -0.258, "Call": "inactive"}
{"target": "ATXN2 (ataxin 2)", "reagent": 3, "G2 robust z-score": 5.99, "Call": "active"}
{"target": "TOP3A (DNA topoisomerase III alpha)", "reagent": 1, "G2 robust z-score": -0.57, "Call": "inactive"}
{"target": "TOP3A (DNA topoisomerase III alpha)", "reagent": 2, "G2 robust z-score": 0.593, "Call": "inactive"}
{"target": "TOP3A (DNA topoisomerase III alpha)", "reagent": 3, "G2 robust z-score": 4.66, "Call": "inactive"}
